# Assay results: article PMC7862700
# The list shows a part of the results. Construct or isoform of the protein are uncertain.
# Target: T1, ELF2 (UniProt Q15723)
# T1 sequence: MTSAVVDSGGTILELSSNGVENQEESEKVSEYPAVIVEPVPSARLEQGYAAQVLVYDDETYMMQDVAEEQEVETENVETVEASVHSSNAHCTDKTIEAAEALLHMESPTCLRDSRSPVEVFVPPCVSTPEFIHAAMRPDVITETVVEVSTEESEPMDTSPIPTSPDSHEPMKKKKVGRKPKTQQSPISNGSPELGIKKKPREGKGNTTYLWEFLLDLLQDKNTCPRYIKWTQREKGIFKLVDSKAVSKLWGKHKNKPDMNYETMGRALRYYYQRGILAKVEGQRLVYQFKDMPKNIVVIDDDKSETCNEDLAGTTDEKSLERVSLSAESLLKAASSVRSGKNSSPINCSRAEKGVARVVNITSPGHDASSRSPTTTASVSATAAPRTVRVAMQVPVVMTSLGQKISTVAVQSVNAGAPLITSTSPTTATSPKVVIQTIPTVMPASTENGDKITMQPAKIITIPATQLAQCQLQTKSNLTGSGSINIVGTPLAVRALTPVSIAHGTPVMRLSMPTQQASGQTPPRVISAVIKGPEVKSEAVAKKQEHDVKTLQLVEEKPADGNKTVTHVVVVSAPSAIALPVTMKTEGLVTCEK
# Experiment: DAPPL (digital affinity profiling via proximity ligation, sequencing)
# Details: 10 mM Tris-HCl pH 7.5, 50 mM NaCl, 1 mM DTT, 4% glycerol, room temperature, 30 min; GST-TFs on glutathione beads, 16-mer random dsDNA library, 0.1% …; high values mean tight binding; double strand, one strand shown; scale: fold enrichment (6-mer frequency, TF over GST control)
row,Sequence,binding signal
1,ATCGAC,1.09
2,ATTTTC,1.46
3,AAAAAC,1.27
4,CCGTTC,1.37
5,TGACTA,1.11
6,GTAGAT,0.948
7,AAGATC,1.03
8,GCGATC,0.935
9,CCAGAT,0.849
10,AATCCA,1.06
11,TGGGAA,1.06
12,GAAAGT,0.834
13,CGTTCT,1.38
14,TTGGAA,0.937
15,TCGATA,1.04
16,AGTGCT,1.39
17,TTCTGT,1.23
18,TAGCGC,0.906
19,TCTAGA,0.918
20,TTATCC,1.53

# Reprinted at random: 2 entries already listed.
row,Sequence,binding signal
2,ATTTTC,1.46
9,CCAGAT,0.849

# Later entries.

row,Sequence,binding signal
1,AATACG,1.29
2,TTGTGC,1.15
3,TTAGAT,1.02
4,TACGCA,1.12
5,ATGGGC,1.19
6,AACTAG,1.14
7,ATCAAA,1
8,GTTAAA,0.998
9,TTTTTG,1.4
10,TTCGGC,1.02
11,TGTAAG,1.04
12,AACTCT,1.27
13,ATTAGT,1.02
14,TGGAAC,0.95
15,CCAATT,1.25
16,TCGATG,1.06
17,ATACGC,1.11
18,GCGATA,0.947
19,GATCTG,0.89
20,GGAAAA,1.46
